Test results taken from the supplement of paper PMC11732987, “Enantioselective OTUD7B fragment discovery through chemoproteomics screening and high-throughput optimisation” (Communications Chemistry, 2025).
The other results are listed elsewhere or left out. The data scatter; read single values as rough.

Amino acid sequences for entries named in this document (tags omitted). A change or cut given only in a name is not applied to a line headed by its entry. Residues count along the entry.
UniProt O00469: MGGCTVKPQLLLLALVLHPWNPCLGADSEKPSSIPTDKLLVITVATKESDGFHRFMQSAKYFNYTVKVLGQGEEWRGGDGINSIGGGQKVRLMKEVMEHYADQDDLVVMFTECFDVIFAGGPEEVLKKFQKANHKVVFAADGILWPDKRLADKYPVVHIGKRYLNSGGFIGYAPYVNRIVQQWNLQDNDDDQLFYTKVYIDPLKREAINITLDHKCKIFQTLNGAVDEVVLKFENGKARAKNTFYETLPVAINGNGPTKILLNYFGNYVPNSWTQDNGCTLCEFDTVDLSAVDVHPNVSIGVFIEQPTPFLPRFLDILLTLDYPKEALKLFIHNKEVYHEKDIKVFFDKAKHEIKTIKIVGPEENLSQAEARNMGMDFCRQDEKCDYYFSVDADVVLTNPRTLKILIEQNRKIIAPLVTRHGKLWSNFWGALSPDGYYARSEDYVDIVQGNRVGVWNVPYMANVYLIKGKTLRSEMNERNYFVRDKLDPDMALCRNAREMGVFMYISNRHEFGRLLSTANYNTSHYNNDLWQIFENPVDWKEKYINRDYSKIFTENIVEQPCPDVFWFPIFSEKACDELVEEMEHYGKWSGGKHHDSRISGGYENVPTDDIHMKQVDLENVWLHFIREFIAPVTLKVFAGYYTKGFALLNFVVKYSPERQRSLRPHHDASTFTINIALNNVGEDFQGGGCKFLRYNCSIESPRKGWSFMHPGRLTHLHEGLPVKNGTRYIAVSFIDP
UniProt Q9HAU0: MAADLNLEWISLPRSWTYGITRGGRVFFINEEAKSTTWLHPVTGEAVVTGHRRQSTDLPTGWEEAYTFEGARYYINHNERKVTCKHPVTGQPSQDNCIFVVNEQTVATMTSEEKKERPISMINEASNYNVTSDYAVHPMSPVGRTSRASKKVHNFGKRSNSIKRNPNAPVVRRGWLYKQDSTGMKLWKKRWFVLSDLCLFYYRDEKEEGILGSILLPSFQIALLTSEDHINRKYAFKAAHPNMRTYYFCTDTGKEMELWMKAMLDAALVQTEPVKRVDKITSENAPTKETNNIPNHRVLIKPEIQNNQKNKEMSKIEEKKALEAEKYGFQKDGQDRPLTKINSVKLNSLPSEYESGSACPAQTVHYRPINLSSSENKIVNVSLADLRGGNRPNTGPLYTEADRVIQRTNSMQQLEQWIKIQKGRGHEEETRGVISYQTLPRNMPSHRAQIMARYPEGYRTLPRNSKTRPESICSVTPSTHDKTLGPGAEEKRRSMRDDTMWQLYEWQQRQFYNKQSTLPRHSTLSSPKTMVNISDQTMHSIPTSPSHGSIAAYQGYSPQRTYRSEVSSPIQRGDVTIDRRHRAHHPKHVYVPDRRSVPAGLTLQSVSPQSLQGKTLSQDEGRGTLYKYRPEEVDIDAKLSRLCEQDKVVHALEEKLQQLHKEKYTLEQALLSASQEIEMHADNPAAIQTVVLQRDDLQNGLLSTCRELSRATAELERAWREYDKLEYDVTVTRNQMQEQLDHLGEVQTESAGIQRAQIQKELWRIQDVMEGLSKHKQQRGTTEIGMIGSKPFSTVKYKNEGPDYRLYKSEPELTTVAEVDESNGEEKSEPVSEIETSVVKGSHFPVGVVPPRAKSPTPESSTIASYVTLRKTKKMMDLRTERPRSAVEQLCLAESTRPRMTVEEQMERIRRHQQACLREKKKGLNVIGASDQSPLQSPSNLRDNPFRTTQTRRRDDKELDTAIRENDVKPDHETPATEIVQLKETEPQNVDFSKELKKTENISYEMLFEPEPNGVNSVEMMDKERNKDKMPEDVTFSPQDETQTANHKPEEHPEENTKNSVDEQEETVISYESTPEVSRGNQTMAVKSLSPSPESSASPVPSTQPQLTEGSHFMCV
UniProt P29590: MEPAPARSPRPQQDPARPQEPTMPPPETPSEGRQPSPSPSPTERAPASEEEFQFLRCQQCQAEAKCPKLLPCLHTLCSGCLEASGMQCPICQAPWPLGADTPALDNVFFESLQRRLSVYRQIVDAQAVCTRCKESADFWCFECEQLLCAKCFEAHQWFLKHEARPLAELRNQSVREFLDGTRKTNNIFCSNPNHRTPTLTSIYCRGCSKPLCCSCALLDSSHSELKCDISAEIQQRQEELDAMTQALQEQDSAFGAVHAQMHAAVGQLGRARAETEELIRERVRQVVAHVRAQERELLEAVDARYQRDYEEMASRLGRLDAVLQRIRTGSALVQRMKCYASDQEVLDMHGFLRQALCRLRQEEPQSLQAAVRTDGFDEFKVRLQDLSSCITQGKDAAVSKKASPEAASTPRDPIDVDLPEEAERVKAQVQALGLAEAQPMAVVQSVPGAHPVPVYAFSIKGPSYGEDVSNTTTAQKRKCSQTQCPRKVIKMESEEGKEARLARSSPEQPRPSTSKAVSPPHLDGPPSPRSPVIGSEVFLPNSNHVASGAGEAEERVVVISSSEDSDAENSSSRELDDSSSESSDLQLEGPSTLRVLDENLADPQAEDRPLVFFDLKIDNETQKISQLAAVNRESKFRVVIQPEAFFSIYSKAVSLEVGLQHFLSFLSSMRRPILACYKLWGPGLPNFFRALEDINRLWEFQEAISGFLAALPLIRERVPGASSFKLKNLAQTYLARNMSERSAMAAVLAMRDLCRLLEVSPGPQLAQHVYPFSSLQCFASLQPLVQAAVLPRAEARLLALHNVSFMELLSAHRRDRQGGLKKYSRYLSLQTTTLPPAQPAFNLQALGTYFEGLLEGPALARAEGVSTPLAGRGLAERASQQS
UniProt Q9UNA4: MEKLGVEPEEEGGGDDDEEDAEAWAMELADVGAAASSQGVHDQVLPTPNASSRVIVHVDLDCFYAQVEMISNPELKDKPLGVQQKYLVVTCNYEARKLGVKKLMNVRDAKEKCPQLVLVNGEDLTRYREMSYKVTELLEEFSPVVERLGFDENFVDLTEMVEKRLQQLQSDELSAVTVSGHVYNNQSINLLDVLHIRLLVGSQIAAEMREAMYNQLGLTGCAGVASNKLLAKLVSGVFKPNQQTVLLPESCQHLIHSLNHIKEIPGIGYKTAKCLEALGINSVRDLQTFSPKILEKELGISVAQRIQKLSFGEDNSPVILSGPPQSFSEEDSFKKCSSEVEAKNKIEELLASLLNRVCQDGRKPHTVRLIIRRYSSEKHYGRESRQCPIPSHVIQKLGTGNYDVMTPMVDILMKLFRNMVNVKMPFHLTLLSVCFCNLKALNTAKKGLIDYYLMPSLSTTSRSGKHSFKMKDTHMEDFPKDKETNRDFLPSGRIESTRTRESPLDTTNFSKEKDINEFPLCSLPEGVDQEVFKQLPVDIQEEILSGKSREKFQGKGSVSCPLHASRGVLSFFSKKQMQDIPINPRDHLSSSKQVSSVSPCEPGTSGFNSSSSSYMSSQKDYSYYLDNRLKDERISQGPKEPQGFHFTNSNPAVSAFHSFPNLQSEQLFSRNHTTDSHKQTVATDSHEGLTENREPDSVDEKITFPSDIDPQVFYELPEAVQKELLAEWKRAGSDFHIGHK
UniProt O00443: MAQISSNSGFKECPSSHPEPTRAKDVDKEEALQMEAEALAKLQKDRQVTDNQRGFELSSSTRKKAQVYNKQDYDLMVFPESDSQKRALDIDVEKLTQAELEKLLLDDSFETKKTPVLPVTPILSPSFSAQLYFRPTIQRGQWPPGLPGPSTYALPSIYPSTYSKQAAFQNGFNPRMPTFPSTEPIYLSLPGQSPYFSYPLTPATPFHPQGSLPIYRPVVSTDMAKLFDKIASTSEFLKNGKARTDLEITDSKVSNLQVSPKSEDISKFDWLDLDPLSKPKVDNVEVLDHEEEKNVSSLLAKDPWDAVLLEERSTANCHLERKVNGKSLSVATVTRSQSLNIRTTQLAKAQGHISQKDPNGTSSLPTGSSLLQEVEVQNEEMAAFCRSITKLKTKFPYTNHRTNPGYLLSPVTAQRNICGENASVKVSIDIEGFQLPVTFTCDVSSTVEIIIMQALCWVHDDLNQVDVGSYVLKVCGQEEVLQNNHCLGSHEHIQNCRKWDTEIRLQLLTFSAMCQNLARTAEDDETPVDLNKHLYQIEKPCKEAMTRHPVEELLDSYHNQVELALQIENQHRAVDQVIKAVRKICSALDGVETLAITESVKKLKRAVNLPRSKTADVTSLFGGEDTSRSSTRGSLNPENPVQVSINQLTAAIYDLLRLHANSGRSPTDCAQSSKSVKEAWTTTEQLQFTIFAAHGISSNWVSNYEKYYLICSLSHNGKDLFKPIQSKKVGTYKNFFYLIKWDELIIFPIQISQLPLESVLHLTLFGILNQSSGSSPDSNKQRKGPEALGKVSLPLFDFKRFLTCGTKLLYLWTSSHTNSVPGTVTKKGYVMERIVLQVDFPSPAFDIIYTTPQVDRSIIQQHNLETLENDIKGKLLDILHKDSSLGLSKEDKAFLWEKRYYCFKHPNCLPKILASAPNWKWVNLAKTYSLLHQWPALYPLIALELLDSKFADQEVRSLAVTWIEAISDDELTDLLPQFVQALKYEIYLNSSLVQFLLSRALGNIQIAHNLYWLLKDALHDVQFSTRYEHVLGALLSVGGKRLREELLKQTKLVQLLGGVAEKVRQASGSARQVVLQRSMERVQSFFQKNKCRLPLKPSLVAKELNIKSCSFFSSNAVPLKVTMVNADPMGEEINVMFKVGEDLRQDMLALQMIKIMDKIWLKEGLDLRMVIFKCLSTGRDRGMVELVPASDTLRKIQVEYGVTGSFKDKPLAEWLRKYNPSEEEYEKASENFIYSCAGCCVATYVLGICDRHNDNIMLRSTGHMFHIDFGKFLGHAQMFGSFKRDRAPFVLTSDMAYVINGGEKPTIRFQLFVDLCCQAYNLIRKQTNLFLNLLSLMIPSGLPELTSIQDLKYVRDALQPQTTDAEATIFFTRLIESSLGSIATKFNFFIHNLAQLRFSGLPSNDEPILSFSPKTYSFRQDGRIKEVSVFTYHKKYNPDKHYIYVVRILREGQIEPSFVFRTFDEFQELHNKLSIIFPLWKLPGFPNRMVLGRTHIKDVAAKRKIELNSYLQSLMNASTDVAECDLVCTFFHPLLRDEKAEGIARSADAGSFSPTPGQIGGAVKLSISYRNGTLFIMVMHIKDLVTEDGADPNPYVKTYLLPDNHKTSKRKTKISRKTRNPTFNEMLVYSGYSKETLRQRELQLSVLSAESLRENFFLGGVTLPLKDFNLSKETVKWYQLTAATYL
UniProt Q99541: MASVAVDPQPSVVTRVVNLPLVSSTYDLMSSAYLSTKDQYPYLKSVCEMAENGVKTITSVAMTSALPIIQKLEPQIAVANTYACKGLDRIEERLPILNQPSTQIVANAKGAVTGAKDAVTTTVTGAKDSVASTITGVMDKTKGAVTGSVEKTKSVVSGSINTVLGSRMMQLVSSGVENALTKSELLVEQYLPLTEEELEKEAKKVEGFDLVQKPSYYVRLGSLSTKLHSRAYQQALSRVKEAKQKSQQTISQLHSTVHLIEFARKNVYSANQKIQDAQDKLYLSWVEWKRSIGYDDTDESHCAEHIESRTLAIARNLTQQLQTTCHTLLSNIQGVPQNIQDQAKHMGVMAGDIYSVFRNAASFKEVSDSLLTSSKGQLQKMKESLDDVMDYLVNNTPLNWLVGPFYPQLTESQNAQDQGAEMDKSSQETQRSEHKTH
UniProt O75925, 421-453: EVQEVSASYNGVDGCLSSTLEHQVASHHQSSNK
UniProt Q9BY77: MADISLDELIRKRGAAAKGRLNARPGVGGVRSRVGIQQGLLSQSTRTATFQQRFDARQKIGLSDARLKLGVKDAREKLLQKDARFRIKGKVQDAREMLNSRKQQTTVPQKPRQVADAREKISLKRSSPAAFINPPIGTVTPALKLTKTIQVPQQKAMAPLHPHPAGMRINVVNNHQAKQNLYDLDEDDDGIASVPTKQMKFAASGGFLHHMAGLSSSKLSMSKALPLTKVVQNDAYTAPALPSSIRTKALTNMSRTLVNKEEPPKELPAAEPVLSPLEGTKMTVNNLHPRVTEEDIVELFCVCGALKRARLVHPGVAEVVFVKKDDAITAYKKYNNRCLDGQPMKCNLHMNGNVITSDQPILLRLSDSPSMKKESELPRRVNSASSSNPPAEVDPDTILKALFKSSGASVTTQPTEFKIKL
UniProt Q7Z7B1: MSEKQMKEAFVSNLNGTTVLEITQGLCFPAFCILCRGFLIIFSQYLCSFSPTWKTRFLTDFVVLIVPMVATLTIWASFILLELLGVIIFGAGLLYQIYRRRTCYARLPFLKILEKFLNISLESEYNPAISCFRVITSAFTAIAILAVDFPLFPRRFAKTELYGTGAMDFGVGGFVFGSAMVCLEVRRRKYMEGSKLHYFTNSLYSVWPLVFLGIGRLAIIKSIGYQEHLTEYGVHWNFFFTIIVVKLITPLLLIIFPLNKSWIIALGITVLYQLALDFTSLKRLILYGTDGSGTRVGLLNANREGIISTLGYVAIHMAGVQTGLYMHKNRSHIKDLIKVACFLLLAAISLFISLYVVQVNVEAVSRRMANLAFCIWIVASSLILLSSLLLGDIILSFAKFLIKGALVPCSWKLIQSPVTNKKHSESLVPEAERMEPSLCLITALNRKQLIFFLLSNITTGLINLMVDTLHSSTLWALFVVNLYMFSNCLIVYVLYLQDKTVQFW

Experiments:
[1] = compound: ClCC(=O)N[C@@H]1CCCc2ccccc12; test: log2 mean competition ratio of IA-DTB cysteine labelling (DMSO/compound) (log2 ratio); higher = stronger cysteine engagement by compound; details: treatment time: 4 h, cell line lysate: HEK293T
Protocol: (§1)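 IA-DTB competitive cysteine chemoproteomics in HEK293T RIPA lysate. Lysates were treated with compound 29 or 30 at 50 or 200 µM for 4 h, then IA-DTB (500 µM, 1 h), trypsin-digested, NeutrAvidin-enriched and analysed by diaPASEF. Competition ratio = intensity DMSO / intensity compound (n=4 treated, n=64 DMSO); binding: mean log2 CR ≥ 1 and p ≤ 0.05 plus QC filters. Target is the cysteine site.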

[2] = compound: ClCC(=O)N[C@H]1CCCc2ccccc12; test: as above; details: treatment time: 4 h, cell line lysate: HEK293T
Protocol: as §1

Target | log2 mean competition ratio ([1]; 50 µM) | log2 mean competition ratio ([1]; 200 µM) | log2 mean competition ratio ([2]; 50 µM) | log2 mean competition ratio ([2]; 200 µM)
PIEZO1 C95 (UniProt Q92508) | -0.151 | 0.155 | -0.0773 | 0.126
PLS3 C463 | -0.23 | -0.051 | -0.392 | -0.186
PLOD2 C379 (UniProt O00469) | -0.216 | -0.254 | 0.123 | 0.0921
PIK3R1 C498 (UniProt P27986) | 0.0401 | -0.262 | -0.238 | -0.292
PLEKHA5 C249 (UniProt Q9HAU0) | 0.431 | -0.178 | 0.242 | -0.25
PKM C152 | -0.135 | -0.518 | 0.269 | -0.293
POLR1B C1061 (UniProt Q9H9Y6) | 0.0484 | 0.219 | 0.015 | 0.137
PML C204 (UniProt P29590) | 0.375 | 0.473 | 0.17 | 0.31
PLEKHA5 C473 (UniProt Q9HAU0) | 0.232 | -0.0604 | 0.191 | -0.092
PHKA1 C937 (UniProt P46020) | -0.139 | -0.134 | -0.000887 | -0.136
POLI C336 (UniProt Q9UNA4) | -0.0815 | 0.285 | -0.386 | 0.146
PI4KA C246 (UniProt P42356) | 0.0393 | 0.291 | -0.16 | 0.304
PIK3C2A C418 (UniProt O00443) | -0.0231 | -0.00911 | -0.144 | -0.0438
PHKA1 C1185 (UniProt P46020) | -0.19 | -0.286 | -0.0583 | -0.0124
POLL C425 | -0.235 | 0.0644 | -0.795 | -0.046
POLA1 C592 (UniProt P09884) | 0.326 | 0.351 | 0.224 | 0.56
PLCB3 C1176 (UniProt Q01970) | -0.403 | 0.363 | -0.376 | 0.259
POLA2 C198 (UniProt Q14181) | -0.00726 | -0.00803 | -0.218 | -0.0622
PLIN2 C47 (UniProt Q99541) | -0.0547 | -0.108 | -0.472 | -0.118
PIAS1 C435 (UniProt O75925) | -0.634 | 0.472 | -0.41 | -0.25
POLDIP3 C338 (UniProt Q9BY77) | -0.0993 | -0.0226 | 0.106 | -0.0316
PIGW C409 (UniProt Q7Z7B1) | 0.12 | 0.182 | -0.0145 | 0.109

Reprinted at random: 2 entries already listed, in no set order.
Target | log2 mean competition ratio ([1]; 50 µM) | log2 mean competition ratio ([1]; 200 µM) | log2 mean competition ratio ([2]; 50 µM) | log2 mean competition ratio ([2]; 200 µM)
PIGW C409 (UniProt Q7Z7B1) | 0.12 | 0.182 | -0.0145 | 0.109
PLIN2 C47 (UniProt Q99541) | -0.0547 | -0.108 | -0.472 | -0.118
